Results deposited as PubChem BioAssay AID1053208 (Peter MacCallum Cancer Centre, 2014)
Test: 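Genes whose silencing cuts survival of bone tumour cells only with doxorubicin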 (primary screen). Cells: mouse osteosarcoma cells, early-passage culture from an engineered mouse model of fibroblastic bone tumour. Reagents: siRNA pool against mouse genes, 40 nM. Duration: about 120 h (48 h before drug, then 72 h with drug). Conditions: doxorubicin 100 nM for 72 h, roughly 30-40% inhibitory dose. Measured: 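Viability read as ATP luminescence after 72 h of 100 nM doxorubicin or none, duplicate wells averaged, scaled to non-targeting siRNA, then expressed as robust z-scores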. Scale: viability z-score with doxorubicin: higher = more viable cells under doxorubicin; viability z-score without drug: higher = more viable cells with knock-down alone. Call rule: 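a pool counts as active when its viability z-score with doxorubicin is -2 or below and its z-score without drug lies between -2 and 2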.
The deposit covers about 17,000 reagents; shown is an unselected part. 788 of all reagents (4.7%) count as active. 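Calls rest on z-score classes alone; an extra cut-off of viability at most 70% of control was not applied to them.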 Unmarked entries are inactive. Not all columns of the deposit are shown.

The opening 2 entries, to show the layout:
gene symbol | combined z-score class | viability z-score with doxorubicin | viability z-score without drug
Glp2r | no change with or without drug | 0.45 | 0.34
Or13a22 | no change with or without drug | 0.67 | 0.67

The listing, from the start:
gene symbol | combined z-score class | viability z-score with doxorubicin | viability z-score without drug
Glp2r | no change with or without drug | 0.45 | 0.34
Or13a22 | no change with or without drug | 0.67 | 0.67
Rhpn2 | no change with or without drug | -0.67 | -1.18
Mrgprb1 | no change with or without drug | 1.12 | -0.51
Tmem215 | no change with or without drug | 0.9 | -0.67
H3c15 | no change with or without drug | -0.22 | -1.85
Mbd3l1 | no change with or without drug | 1.57 | 0.17
Cyp2c65 | high cell count with doxorubicin only | 2.59 | -0.17
Drg1 | low cell count without drug only | -1.01 | -2.19
Cox7b2 | no change with or without drug | -1.35 | 1.69
Ttc27 | no change with or without drug | 0.34 | 0.51
Tas2r126 | low cell count without drug only | 1.24 | -2.02
Or51ai2 | no change with or without drug | 1.12 | 0
Il1f10 | no change with or without drug | -0.67 | 0.84
Medag | no change with or without drug | -1.24 | -0.34
Jund | no change with or without drug | 0.67 | -0.17
Sfrp5 | no change with or without drug | -0.11 | 0
Coprs | no change with or without drug | 0 | 0.84
Nlrc4 | no change with or without drug | 0.22 | -1.18
Cd160 | high cell count without drug only | 1.8 | 2.87
